Assay results from US20240117302A1, “COMPOSITIONS AND METHODS FOR SMALL MOLECULE BASED EXPANSION OF PLURIPOTENT STEM CELLS” (Trailhead Biosystems Inc., priority 2022, published 2024).
For at least one compound, name, drawing or mass did not settle the structure.

Columns and labels:
pluripotent culture = assay: HD-DoE experiment for pluripotent maintenance (optimization of naïve, primed and pluripotent genes); type: cell-based; details: FIG. 6A
Description: A data-driven, High-Dimensional Design of Experiments (HD-DoE)-based perturbation of a pluripotent culture was used to assay several cellular signaling pathways known to function within the pluripotent state. The HD-DOE method was applied with the intent to find conditions for directly inducing the naïve state from the pluripotent stem cell state. This example utilizes a method previously described by Bukys et al. (2020) Iscience 23:101346, which employs computerized design geometries to simultaneously test multiple process inputs and provide for mathematical modeling of a deep effector/response space. The method allows for finding combinatorial signaling inputs that control a complex differentiation process and allows testing of multiple plausible critical process parameters impacting output responses, such as gene expression. […]
To develop a cell culture recipe for growing and maintaining PSCs in cell culture and for differentiation of stem cells to naïve state progenitors, the impact of agonists and antagonists of multiple signaling pathways (herein called effectors) on the expression of pre-selected genes was tested and modeled. The impact of each effector on gene expression level is defined by a parameter called factor contribution that is calculated for each effector during the modeling. […]

pluripotent cells = assay: Adherent culture validation of TB5i media and comparison with TB7i; type: cell-based; details: direct comparison between TB5i and TB7i, FIG. 7A-7B
Description: In an exemplary embodiment, a PSC culture, such as the CR01 iPSC line, is grown and maintained on vitronectin coated 6-well TC plates using a culture media of the present application, such as TB5i media. PSC cultures are generally passaged every 3-4 days and treated with agents for disrupting cell-to-cell adhesion, such as EDTA, or digestion enzymes, such as collagenase, accutase, trypsin, or […]. This can be accomplished by removing the media and washing each well of the TC plate with 2 ml of PBS. A 3-minute incubation in the presence of 5 mM EDTA can then be performed at 37 degrees C. Wells are then aspirated, and the cells are washed off from the plates and seeded in fresh media. Each well passaged is generally seeded onto 6 wells of a newly vitronectin-coated TC plate resulting in a 1 to 6 expansion of the iPSC line.

C=C[C@@]1(C)CC(=O)[C@]2(O)[C@@]3(C)[C@@H](O)CCC(C)(C)[C@@H]3[C@H](O)[C@H](OC(C)=O)[C@@]2(C)O1 [forskolin]
criticality to the process (sequential optimization of all naïve, primed and pluripotent genes) (pluripotent culture): neither the cAMP activator forskolin, nor the ROCK pathway inhibitor were critical | benefit to the overall growth of pluripotent cells (pluripotent cells): neither forskolin, nor Y27632 were beneficial
